Measurements: publication doi:10.1101/2020.04.26.062372
These are yes or no findings as the source states them, for the method shown. Binding seen in cells or lysates may run through a third protein. Some entries that bind do so weakly or less than the wild type.

By UniProt entry, the sequences of proteins in these tests, tags left out. Residues count along the entry.
UniProt P47871, residues 26-477: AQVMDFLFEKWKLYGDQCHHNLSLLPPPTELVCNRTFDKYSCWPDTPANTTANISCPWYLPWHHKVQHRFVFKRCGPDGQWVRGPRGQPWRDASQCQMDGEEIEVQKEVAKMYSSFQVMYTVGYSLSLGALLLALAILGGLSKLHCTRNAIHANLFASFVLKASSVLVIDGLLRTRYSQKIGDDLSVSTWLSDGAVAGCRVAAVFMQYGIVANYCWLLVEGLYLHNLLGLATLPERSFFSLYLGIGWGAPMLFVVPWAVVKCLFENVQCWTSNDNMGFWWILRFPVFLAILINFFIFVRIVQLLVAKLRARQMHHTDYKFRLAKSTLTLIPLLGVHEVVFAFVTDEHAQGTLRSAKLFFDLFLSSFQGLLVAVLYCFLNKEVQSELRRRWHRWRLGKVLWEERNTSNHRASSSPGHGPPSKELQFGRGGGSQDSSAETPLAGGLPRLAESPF
UniProt P43220, residues 24-463: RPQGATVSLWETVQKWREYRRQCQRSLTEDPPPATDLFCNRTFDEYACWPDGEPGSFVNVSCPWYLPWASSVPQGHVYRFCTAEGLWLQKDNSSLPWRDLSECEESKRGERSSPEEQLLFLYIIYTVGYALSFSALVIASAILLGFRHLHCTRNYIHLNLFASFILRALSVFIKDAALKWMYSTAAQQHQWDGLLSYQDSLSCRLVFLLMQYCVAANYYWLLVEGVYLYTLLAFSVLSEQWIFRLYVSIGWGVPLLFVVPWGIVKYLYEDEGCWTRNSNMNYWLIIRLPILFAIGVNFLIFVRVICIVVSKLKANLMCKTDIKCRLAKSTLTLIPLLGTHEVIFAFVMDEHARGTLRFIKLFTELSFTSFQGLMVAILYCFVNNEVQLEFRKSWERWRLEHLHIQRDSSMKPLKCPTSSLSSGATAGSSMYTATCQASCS
UniProt P32121: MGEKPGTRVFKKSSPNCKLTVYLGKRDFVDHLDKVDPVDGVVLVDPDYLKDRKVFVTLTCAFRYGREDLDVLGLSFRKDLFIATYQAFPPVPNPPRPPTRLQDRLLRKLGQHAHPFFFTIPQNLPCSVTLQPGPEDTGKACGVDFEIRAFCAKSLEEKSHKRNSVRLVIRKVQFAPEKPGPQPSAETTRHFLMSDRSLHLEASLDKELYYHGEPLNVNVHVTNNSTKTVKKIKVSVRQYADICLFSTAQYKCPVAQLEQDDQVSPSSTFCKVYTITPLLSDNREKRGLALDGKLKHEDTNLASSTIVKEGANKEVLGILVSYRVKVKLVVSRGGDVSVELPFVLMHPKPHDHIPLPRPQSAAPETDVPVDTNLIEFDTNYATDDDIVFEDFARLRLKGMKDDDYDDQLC

Key:
Assay in all cases: split reporter
[1] = target: GCGR-SmBiT (glucagon receptor tagged at the C-terminus with SmBiT) (UniProt P47871)
[2] = target: GLP-1R-SmBiT (glucagon-like peptide-1 receptor tagged at the C-terminus with SmBiT) (UniProt P43220)
[3] = target: human GLP-1R in PathHunter β-arrestin-2 CHO-K1 cells (human) (UniProt P43220)
[4] = target: human GCGR in PathHunter β-arrestin-2 CHO-K1 cells (human) (UniProt P47871)

| binding [1] | binding [2] | binding [3] | binding [4] | Substance |
| --- | --- | --- | --- | --- |
| binds | binds |  |  | LgBiT-β-arrestin-2 (from UniProt P32121 1-409) |
|  |  | binds | binds | β-arrestin-2 of PathHunter β-arrestin-2 CHO-K1 cells (from UniProt P32121 1-409) |
